Key:
[1] = test system: breast cancer resistance protein (BCRP, encoded by ABCG2); conditions: cited from earlier work
[2] = Main analysis: all subsets multivariable linear regression with BIC model averaging of clinical factors/comedications on ATV analyte levels, ratios and sum total; type: in vivo, human; conditions: log10 transformed plasma concentration, model averaged coefficient
Description: The following 8 endpoints were considered: individual concentrations of ATV and its 3 metabolites, specific analyte ratios (hydroxylation—2‐OH ATV/ATV, 2‐OH ATV L/ATV L; lactonization—ATV L/ATV), and the analyte sum total (ATV + 2‐OH ATV + ATV L + 2‐OH ATV L). […]
Prior to modelling, all endpoints were log10 transformed to normalise the distribution of (observed) residuals and optimise homoscedasticity. Clinical covariate multicollinearity was assessed using the variance inflation factor, which was <1.5 for all covariates, indicating negligible multicollinearity.
Multivariable linear regression was used for covariate selection, as has been done previously with sparse ATV sampling.18 For a given endpoint, first the maximum multivariable linear regression model (containing all 20 covariates) was constructed. […] The utility of the final produced model for describing the observed variation in the endpoint was assessed using the unadjusted R^2 value. […]

Row | SMILES | inhibition of BCRP in vitro [1] | B (SE), Sex (F vs M) on analyte level [2] | B (SE), CYP3A inhibitor on analyte level ([2]; moderate/strong CYP3A inhibitor)
1 | NS(=O)(=O)c1cc(C(=O)O)c(NCc2ccco2)cc1Cl [furosemide] | inhibit |  | 
2 | CC(C)c1c(C(=O)Nc2ccccc2)c(-c2ccccc2)c(-c2ccc(F)cc2)n1CC[C@@H](O)C[C@@H](O)CC(=O)O [ATV, atorvastatin] |  | −0.123 (0.034) | 0.166 (0.076)

From publication PMC6983514, “Investigating the clinical factors and comedications associated with circulating levels of atorvastatin and its major metabolites in secondary prevention” (British Journal of Clinical Pharmacology, 2020)
